Results taken from article PMC10281804, “The structural basis of the talin–KANK1 interaction that coordinates the actin and microtubule cytoskeletons at focal adhesions” (Open Biology, 2023).
These are yes or no findings as the source states them, for the method shown.

Sequences of proteins named here, by UniProt entry; tags and fusion partners are left off. Residues count along the entry.
UniProt P26039, residues 1359-1659: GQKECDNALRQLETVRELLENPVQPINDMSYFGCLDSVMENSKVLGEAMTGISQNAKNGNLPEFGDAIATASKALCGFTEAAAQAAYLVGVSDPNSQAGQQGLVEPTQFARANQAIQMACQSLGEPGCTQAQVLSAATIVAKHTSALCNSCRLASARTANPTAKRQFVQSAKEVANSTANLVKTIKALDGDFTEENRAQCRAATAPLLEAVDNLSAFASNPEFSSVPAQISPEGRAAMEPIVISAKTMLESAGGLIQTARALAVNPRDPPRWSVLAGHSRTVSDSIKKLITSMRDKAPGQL

Biological target: Mouse talin-1 R7R8 (mouse) (UniProt P26039)
Assay: condition: 2:1 molar excess of peptide over 400 µM R7R8; NMR titration; 1H,15N HSQC of 400 µM 15N-labelled R7R8 with a 2:1 molar excess of peptide; 298 K, 20 mM sodium phosphate pH 6.5, 50 mM NaCl, 3 mM β-mercaptoethanol; both purified

## PYFVETPYGFQEDLDFVKYVDDIQKGNTIKK [KANK1 KN motif peptide L41E]
  binding: no binding

## PYFVETPYGFQLDLDEVKYVDDIQKGNTIKK [KANK1 KN motif peptide F45E]
  binding: no binding
